Literature values as cited in patent US12721821B2, “Plant essential oil amino acid composition and preparation method therefor” (COCRYSTAL TECHNOLOGY (JIAXING) CO., LTD, priority 2021, dated 2026).
Some results were stated once for a whole list of compounds, not compound by compound.

System: bacteria
Settings: background statement on bactericidal ability; cited from earlier work

Q: For `Cc1ccc(C(C)C)cc1O` [carvacrol], which “minimum inhibitory concentration (MIC)” value is on record?
A: 0.12-50 ppm

Q: For `Cc1ccc(C(C)C)c(O)c1` [thymol], which “minimum inhibitory concentration (MIC)” value is on record?
A: 0.12-50 ppm
